Data source: PubChem BioAssay AID1671195 (Yale University, 2021)
Purpose: 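Regulators of LDL receptor activity judged by labelled LDL uptake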 (primary screen). System: human Huh7 hepatoma cells. Knock-down reagent: siRNA pool against human genes, 18 nM. Time to read-out: about 2 to 2.5 days of knockdown, then 8 h LDL uptake. Treatment: DiI-labelled LDL at 30 µg/ml for 8 h, in lipoprotein-deficient serum medium. Detection: 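Fluorescent LDL signal imaged in cells, scaled to the plate median, robust z-score for each replicate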. Reading the numbers: robust z-score: higher = more LDL uptake after knockdown. Hit rule: 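Active when two or more replicates show a robust z-score above 2 or below -2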.
The whole screen tested about 22,000 reagents; this is a random part of them. About 1,510 of them (6.9%) were called active. 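Active includes knockdowns raising or lowering LDL uptake; positive z-scores mean more uptake, negative mean less.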

The first 2 records, ahead of the listing:
IL16 (interleukin 16)
- robust z-score, replicate 1: -1.44
- robust z-score, replicate 2: -1.08
- robust z-score, replicate 3: -1.44
- Outcome: inactive

ADNP (activity dependent neuroprotector homeobox)
- robust z-score, replicate 1: 1.35
- robust z-score, replicate 2: -0.606
- robust z-score, replicate 3: 1.47
- Outcome: inactive

The listing, from the first entry:
IL16 (interleukin 16)
- robust z-score, replicate 1: -1.44
- robust z-score, replicate 2: -1.08
- robust z-score, replicate 3: -1.44
- Outcome: inactive

ADNP (activity dependent neuroprotector homeobox)
- robust z-score, replicate 1: 1.35
- robust z-score, replicate 2: -0.606
- robust z-score, replicate 3: 1.47
- Outcome: inactive

ACTE1P (actin epsilon 1, pseudogene)
- robust z-score, replicate 1: -0.688
- robust z-score, replicate 2: -1.07
- robust z-score, replicate 3: -1.48
- Outcome: inactive

GZMH (granzyme H)
- robust z-score, replicate 1: 0.066
- robust z-score, replicate 2: 0.237
- robust z-score, replicate 3: -0.185
- Outcome: inactive

TMEM127 (transmembrane protein 127)
- robust z-score, replicate 1: -0.648
- robust z-score, replicate 2: -0.896
- robust z-score, replicate 3: -1.8
- Outcome: inactive

GSTT4 (glutathione S-transferase theta 4)
- robust z-score, replicate 1: -0.269
- robust z-score, replicate 2: -0.305
- robust z-score, replicate 3: -1.06
- Outcome: inactive

MRFAP1L1 (Morf4 family associated protein 1 like 1)
- robust z-score, replicate 1: -0.331
- robust z-score, replicate 2: -0.218
- robust z-score, replicate 3: -0.325
- Outcome: inactive

CXCL14 (C-X-C motif chemokine ligand 14)
- robust z-score, replicate 1: 0.36
- robust z-score, replicate 2: 0.495
- robust z-score, replicate 3: 0.401
- Outcome: inactive

PIWIL3 (piwi like RNA-mediated gene silencing 3)
- robust z-score, replicate 1: 0.0776
- robust z-score, replicate 2: -0.0894
- robust z-score, replicate 3: 0.268
- Outcome: inactive

LOC344165 (retired record)
- robust z-score, replicate 1: -1.18
- robust z-score, replicate 2: -1.17
- robust z-score, replicate 3: -1.25
- Outcome: inactive

MFN1P1 (MFN1 pseudogene 1)
- robust z-score, replicate 1: 2.87
- robust z-score, replicate 2: 1.54
- robust z-score, replicate 3: 1.03
- Outcome: inactive

LXN (latexin)
- robust z-score, replicate 1: -1.2
- robust z-score, replicate 2: -1.16
- robust z-score, replicate 3: -1.25
- Outcome: inactive

LOC391426 (retired record)
- robust z-score, replicate 1: 1.45
- robust z-score, replicate 2: 0.845
- robust z-score, replicate 3: 0.912
- Outcome: inactive

ATP6V0E2 (ATPase H+ transporting V0 subunit e2)
- robust z-score, replicate 1: 0.595
- robust z-score, replicate 2: -0.121
- robust z-score, replicate 3: 1.23
- Outcome: inactive

POLR3C (RNA polymerase III subunit C)
- robust z-score, replicate 1: 0.675
- robust z-score, replicate 2: -0.689
- robust z-score, replicate 3: 1.9
- Outcome: inactive

GPR85 (G protein-coupled receptor 85)
- robust z-score, replicate 1: 1.83
- robust z-score, replicate 2: 0.156
- robust z-score, replicate 3: 0.998
- Outcome: inactive
